No constants are given. Whether binding was seen depends on the method and setting. In cells and extracts the contact can be indirect. Some entries that bind do so weakly or less than the wild type.
Molecular target: mEGFP-ALKBH5 (UniProt Q6P6C2)
Assay: co-IP

Chains of the proteins cited; added tags and fusions are not shown.
UniProt Q6P6C2: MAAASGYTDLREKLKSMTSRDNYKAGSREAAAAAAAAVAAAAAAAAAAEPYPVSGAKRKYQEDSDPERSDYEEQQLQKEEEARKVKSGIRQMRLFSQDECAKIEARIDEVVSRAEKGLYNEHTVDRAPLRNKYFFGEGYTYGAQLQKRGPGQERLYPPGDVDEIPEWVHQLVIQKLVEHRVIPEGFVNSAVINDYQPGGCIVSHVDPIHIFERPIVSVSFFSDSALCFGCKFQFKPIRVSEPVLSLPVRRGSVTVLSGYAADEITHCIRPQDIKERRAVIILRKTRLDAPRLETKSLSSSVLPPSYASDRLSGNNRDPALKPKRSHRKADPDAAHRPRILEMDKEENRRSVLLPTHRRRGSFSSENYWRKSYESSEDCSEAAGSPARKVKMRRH
UniProt O00571: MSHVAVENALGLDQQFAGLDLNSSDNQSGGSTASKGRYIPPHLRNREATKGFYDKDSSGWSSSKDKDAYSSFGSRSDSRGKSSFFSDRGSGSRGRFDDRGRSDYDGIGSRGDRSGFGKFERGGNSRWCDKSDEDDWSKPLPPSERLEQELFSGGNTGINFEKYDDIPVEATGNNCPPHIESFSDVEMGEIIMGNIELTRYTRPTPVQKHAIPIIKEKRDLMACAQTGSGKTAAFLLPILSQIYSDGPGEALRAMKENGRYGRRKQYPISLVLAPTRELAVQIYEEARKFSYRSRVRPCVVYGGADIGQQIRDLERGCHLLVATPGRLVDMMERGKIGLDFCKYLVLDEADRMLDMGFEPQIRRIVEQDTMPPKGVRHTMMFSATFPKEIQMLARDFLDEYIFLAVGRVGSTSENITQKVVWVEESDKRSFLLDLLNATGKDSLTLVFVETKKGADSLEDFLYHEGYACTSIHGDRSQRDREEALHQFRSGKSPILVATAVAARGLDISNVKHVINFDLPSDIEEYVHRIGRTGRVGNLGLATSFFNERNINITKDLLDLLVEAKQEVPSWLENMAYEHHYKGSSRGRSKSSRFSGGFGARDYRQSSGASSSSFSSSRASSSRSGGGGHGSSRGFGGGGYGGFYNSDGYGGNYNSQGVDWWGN

DDX3 (from UniProt O00571 1-662)
binding: binds

Source: doi:10.1101/2024.02.09.577647
